Measured values as given in patent US7892784B2, “Lactam ring-opening enzyme and use thereof” (priority 2006, dated 2011).
At least one compound was matched to its structure with a doubt left.

Protein sequences, listed by entry. Tags and fused reporters are not part of them. Residues count along the entry.
UniProt Q1MW86, 43-276: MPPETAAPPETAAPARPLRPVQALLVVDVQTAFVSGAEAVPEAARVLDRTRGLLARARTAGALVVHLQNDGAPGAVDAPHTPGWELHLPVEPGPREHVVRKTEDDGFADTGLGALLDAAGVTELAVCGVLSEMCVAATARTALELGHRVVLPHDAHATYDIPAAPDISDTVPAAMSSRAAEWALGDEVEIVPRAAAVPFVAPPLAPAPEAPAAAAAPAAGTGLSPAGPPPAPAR

Target: T1, rSttH (Streptomyces noursei, UniProt Q1MW86)
T1 construct: purified rSttH from E. coli M15 (pREP4) carrying pQE30-SHF6R; 6xHis (N); made in house; host or cells: E. coli M15 (pREP4) carrying pQE30-SHF6R
Assay: rSttH reaction rate test (kinetic analysis, HPLC, Lineweaver-Burk)
Format: biochemical, Streptomyces albulus NBRC14147
Settings: substrate of rSttH; 30° C., 100 mM NaPB (pH 6.5)
Experimental: In accordance with the manufacturer's (Qiagen) protocols, a reaction mixture (500 μL) was prepared using 100 mM sodium phosphate buffer (pH 6.5), 1 mg/mL ST-F or ST-D, and 100 μg/mL of purified rSttH from E. coli M15 (pREP4) carrying pQE30-SHF6R. The reaction mixture was reacted for 1 hour at 30° C. with or without rSttH, and then extracted with chloroform to remove the proteins. The water layer was analyzed by reverse-phase HPLC using an ion-pair reagent. The analytical conditions were: column, C18 reverse-phase column (COSMOSIL 5C18-AR—II, 250×4.6 mm, Nacalai Tesque, Kyoto, Japan); column temperature, 30° C.; detection, 210 nm; and flow rate, 1 mL/minute. Two different mobile phases were used, one of 0.1% heptafluorobutyric acid+18% acetonitrile (ST-F reaction) and one of 0.1% heptafluorobutyric acid+23% acetonitrile (ST-D reaction). […] The reactions were terminated by addition of 15 μl 2N HCl, and then analyzed by HPLC. […]
The optimal pH was measured in several buffers (100 mM) with differing pH values: sodium phosphate (NaPB), pH 4.5 to 7; Tris-HCl, pH 7 to 10. […] Although enzymatic activity was greatest at 45° C., approximately 90% of maximum activity was also detected at 65° C.

Compound	Vmax/Km [U/mg/mM]
NCCC[C@H](N)CC(=O)NCCC[C@H](N)CC(=O)NCCC[C@H](N)CC(=O)N[C@@H]1[C@H](O)[C@@H](OC(N)=O)[C@@H](CO)O[C@H]1NC1=N[C@@H]2C(=O)NC[C@@H](O)[C@H]2N1 [ST-D, streptothricin D]	11.99
NCCC[C@H](N)CC(=O)N[C@@H]1[C@H](O)[C@@H](OC(N)=O)[C@@H](CO)O[C@H]1NC1=N[C@@H]2C(=O)NC[C@@H](O)[C@H]2N1 [ST-F, streptothricin F]	44.01
